{"source": "paper PMC7447803", "about": "“DEPS-1 is required for piRNA-dependent silencing and PIWI condensate organisation in Caenorhabditis elegans” (Nature Communications, 2020)", "binders": {"B1": {"name": "DEPS-1 (endogenous) (protein, UniProt Q9N303 1-619)", "chain": "MSERQSKYFDYQGIVISSTGQDNQDSETDLVYLIQAHGKAAPKNIMYGVSKCAFVPTNLERNFDNIEEAKNLERRSKIPLKFGEVILWNESDCDHDKRIILHIKREKPIYEASSSRNGLILKVGGVIQPTSTTSFWTPLCTVTMPETEATRAEPDVWLYAWIRFETTMKSGLDPFNMTATFESFDSCDPSDQARVCEAPWNAGSPDSKFGVWRPDPKPADSDDEIDIEPREGWHLPEDKWAEVIKMQLGLYVGERLLICKELSQFDFIIPLQKPFSRGTDKTLIYPAVGEYFHFSAIWSMQHNGFLIYELQPVPLLRQHVTSVNGNLLTRVVPASIRGLFVDKEGTLGLIDDPHHLLSFFEFHPAGYEFLKAMAEVRAVRTSENKSVRYRIVRTSGMSIFENWLRDTQFVVGPVKGIRINEDTVICAKHPNVYFKIPNNLKEGIPIGGGVQFVGKRQAGVDSEIMITECSPCPAFTCKNYSVSGDTRLFQVYLKPNCDHEQLAESDSMGFVDFRELETPCRGKFLAWVRESITVNDCRRAATIMEVCSTAICPPLIAMSANSSRATSARTTPAGSSIGSRSSIQSRASAATSVSSNRFVGPSSRRTPSGTPQSSTSSRV"}}, "biological_target": "T1, PRG-1 (endogenous) (C. elegans (endogenous in N2 animals)) (UniProt P90786)", "T1 sequence": "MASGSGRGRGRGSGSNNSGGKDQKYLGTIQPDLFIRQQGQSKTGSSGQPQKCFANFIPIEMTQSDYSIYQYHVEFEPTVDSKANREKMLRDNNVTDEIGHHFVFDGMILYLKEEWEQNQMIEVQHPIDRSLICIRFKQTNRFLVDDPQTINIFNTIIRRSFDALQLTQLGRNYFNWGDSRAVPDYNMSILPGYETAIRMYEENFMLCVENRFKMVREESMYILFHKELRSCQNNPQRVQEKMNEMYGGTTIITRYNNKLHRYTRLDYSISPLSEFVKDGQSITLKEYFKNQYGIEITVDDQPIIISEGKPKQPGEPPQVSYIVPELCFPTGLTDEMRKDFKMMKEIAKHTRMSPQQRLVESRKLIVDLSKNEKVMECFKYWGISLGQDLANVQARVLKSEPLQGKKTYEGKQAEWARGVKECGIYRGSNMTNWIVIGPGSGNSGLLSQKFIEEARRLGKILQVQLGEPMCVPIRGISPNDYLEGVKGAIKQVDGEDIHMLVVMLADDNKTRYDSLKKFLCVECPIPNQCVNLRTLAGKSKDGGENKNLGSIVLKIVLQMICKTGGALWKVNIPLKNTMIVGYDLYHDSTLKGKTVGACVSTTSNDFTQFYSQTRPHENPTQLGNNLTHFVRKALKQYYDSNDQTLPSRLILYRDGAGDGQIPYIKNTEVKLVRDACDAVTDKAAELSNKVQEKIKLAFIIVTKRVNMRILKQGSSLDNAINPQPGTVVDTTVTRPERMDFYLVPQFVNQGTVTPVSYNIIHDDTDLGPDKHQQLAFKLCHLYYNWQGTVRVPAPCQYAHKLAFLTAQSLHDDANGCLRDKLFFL", "experiment": "affinity purification with mass spectrometry; anti-PRG-1 antibody pre-coupled to protein A/G matrix, incubated 4 h with lysates of N2 adults (20 mM HEPES pH 7.5, 150 mM NaCl, 0.5% NP-40); controls: prg-1(n4357) lysates and rabbit IgG; LC-MS/MS", "note": "No constants are given. Whether binding was seen depends on the method and setting. In cells and extracts the contact can be indirect. These calls come from enrichment with a bait or labelling near it, and not all partners need be listed.", "data": [{"binder": "B1", "values": [{"measurement": "binding", "value": "binds"}]}]}
